Laboratory results as given in patent US20250136601A1 (priority 2022, published 2025).
At least one structure is not confirmed: it was looked up by name or label, or the drawing left a doubt.

The chains behind the UniProt entries cited, without tags or fusion partners.
UniProt P28223, whole entry: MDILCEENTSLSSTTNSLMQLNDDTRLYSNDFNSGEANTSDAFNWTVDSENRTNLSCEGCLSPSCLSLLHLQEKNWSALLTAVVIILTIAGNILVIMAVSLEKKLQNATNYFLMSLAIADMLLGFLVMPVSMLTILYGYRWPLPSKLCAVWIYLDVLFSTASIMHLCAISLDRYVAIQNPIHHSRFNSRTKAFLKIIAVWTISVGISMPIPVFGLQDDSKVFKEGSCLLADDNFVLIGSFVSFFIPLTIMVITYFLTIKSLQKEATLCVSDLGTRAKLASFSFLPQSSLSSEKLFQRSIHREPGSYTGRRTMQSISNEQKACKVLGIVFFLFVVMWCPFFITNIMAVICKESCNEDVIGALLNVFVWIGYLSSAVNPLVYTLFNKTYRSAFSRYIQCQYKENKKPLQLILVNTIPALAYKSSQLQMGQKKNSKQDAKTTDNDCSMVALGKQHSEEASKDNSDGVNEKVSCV

Experiments:
[1] = tested on: acute restraint stress (ARS) mice; test: tail suspension test (TST) after acute restraint stress; assay type: in vivo, C57BL/6J mice; settings: intraperitoneal, tested after 30 minutes
[2] = tested on: acute restraint stress (ARS) mice; test: forced swim test (FST) after acute restraint stress; assay type: in vivo, C57BL/6J mice; settings: intraperitoneal, tested after 30 minutes
[3] = target: 5-HT2A receptor (Homo sapiens (Human), UniProt P28223); assay type: cell-based; settings: without activating the G protein signaling pathway
Procedure: On the second day, the confluent cells from a 6 cm culture dish were digested and reseeded into a 96-well plate at a volume of 100 μL of culture medium per well. On the third day, the drugs were added for testing. The 96-well plate was taken out from the cell incubator to decant the culture medium. 40 μL of the substrate coelenterazine 400a (final concentration 5 μM) was added to each well, and then 20 μL of different drugs were added sequentially from left to right, ensuring that the final concentration of the drug decreased gradually from bottom to top, with two replicates per treatment. Finally, the prepared samples were loaded on a plate reader for signal quantification. The readout values reflected the recruitment of β-arrestin2 to the membrane or the dissociation of G protein trimer. The former indicated the degree of activation of the downstream β-arrestin2 signaling pathway mediated by the 5-HT2A receptor, and the latter indicated the degree of activation of the downstream G protein signaling pathway mediated by the 5-HT2A receptor.

Row | SMILES | antidepressant effect in the TST (immobility time) [1] | antidepressant effect in the FST (immobility time) [2] | pathway selectivity: β-arrestin2 recruitment versus G protein signaling [3]
1 | COc1ccccc1CCCN1CC[C@H]2[C@@H](C1)c1cccc3c1N2CCN3C [Compound I-10] | significant antidepressant effect | significant antidepressant effect | –
2 | COc1ccccc1CCCN1CC[C@@H]2[C@H](C1)c1cccc3c1N2CCCN3C (single isomer, unassigned) [Compound I-15] | – | – | selectively activate the recruitment of β-arrestin2
3 | COc1ccccc1CCN1CC[C@H]2[C@@H](C1)c1cccc3c1N2CCN3C [Compound I-3] | significant antidepressant effect | significant antidepressant effect | –
